Experiment [1] concerns the target recombinant PKM2 (pyruvate kinase M2) (human) (UniProt P14618). The experiment is described as follows: pull-down; His-tagged rPKM2 covalently coupled to CNBr-activated matrix, incubated with crude fractions of the plasma membrane of A549 cells; washed three times with Tris buffer (50 mM Tris, 150 mM NaCl, 0.5% NP40); immunoblot; only the target purified. (A western blot detects proteins with antibodies after separation by electrophoresis.)

Sequences of proteins named here, by UniProt entry; tags and fusion partners are left off. Residues count along the entry.
UniProt P14618: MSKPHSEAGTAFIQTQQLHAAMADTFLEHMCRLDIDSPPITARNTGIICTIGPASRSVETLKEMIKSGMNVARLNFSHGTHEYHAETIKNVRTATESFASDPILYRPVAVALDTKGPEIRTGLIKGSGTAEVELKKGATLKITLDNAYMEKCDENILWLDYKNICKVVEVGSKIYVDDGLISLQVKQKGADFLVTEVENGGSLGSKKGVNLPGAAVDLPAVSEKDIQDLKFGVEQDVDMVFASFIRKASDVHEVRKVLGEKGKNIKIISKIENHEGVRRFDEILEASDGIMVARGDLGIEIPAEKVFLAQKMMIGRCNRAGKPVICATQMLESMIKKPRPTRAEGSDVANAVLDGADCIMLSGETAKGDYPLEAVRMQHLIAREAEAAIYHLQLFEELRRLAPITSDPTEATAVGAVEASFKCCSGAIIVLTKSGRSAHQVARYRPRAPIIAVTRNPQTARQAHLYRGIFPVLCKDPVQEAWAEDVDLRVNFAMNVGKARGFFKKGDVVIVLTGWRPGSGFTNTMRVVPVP
UniProt P11021, residues 19-654: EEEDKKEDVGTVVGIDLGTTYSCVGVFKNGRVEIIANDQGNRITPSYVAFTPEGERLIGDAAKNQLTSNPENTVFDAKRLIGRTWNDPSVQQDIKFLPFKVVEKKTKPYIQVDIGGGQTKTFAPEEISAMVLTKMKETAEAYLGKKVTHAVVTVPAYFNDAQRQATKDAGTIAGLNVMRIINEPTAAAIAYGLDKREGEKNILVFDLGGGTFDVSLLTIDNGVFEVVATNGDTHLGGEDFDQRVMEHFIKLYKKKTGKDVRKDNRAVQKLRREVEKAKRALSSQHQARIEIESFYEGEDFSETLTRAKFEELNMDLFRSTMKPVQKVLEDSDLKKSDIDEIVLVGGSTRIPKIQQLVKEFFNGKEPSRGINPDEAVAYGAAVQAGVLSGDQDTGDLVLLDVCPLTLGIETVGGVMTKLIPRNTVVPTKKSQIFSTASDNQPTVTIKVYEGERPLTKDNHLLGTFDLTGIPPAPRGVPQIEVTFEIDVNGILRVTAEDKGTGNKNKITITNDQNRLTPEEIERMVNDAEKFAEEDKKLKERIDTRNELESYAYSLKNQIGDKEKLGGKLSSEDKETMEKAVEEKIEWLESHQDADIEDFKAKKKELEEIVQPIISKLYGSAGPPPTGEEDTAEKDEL

Experiment [2] deals with GRP78 (human (endogenous in A549 and H1299)) (UniProt P11021). As to the kind of experiment: co-IP; A549- and H1299-conditioned media incubated with anti-Hsp90α or anti-GRP78 antibody and protein G-Sepharose overnight at 4°C; washed three times with IP lysis buffer; immunoblot.
For experiment [3] the target is unchanged. The experiment is described as follows: co-IP; crude fractions of the plasma membrane of A549 cells treated with rPKM2, with or without rHsp90α, immunoprecipitated with IgG or anti-GRP78 antibodies; only the binder purified.

These are yes or no findings as the source states them, for the method shown. Binding seen in cells or lysates may run through a third protein. Some entries that bind do so weakly or less than the wild type.

As to GRP78 (from UniProt P11021 19-654), the binding result in experiment [1] was “binds”.

As to “extracellular PKM2 (from UniProt P14618 1-531)”, in experiment [2], the binding result is given as “binds”. On to “recombinant PKM2 (pyruvate kinase M2) (from UniProt P14618 1-531) (enzyme)”, for which, in experiment [3], the binding result is reported as “binds”.
